These are yes or no findings as the source states them, for the method shown.
What was measured:
Non-phospho. [1] = target: T1, Non-phospho. (not fully specified; printed as Biotin - linker - GDTSPRHLSNVSSTGSID; reading uncertain); test: ELISA: 20 nM biotinylated peptide captured on Neutravidin-coated plate, IgG at 0.01, 0.1, 1, 10 and 100 nM, anti-human-peroxidase/TMB, absorbance 450 nm [D00008 Fig. 4C – 4D; D00009 Fig. 4E]
T1 construct: also called non-phosphorylated biotinylated Tau 401-418 peptide
T1 peptide: {Biotin-linker}-GDTSPRHLSNVSSTGSID

Non-phospho. [2] = target: T1, Non-phospho.; test: ELISA: plate coated with 5 µg/ml IgG, 10 nM biotinylated peptide in solution, streptavidin-peroxidase/TMB, absorbance 450 nm
Method: FIG. 3. Binding of immobilized IgG antibodies to Tau-derived biotinylated peptides containing pS404 and/or pS409 as measured by ELISA. […] 10 nM of the biotinylated peptides shown in FIG. 3, and 5 μg/ml IgG, were used.
Specificity of the top five clones for phosphoserine 404 and phosphoserine 409 was also assessed by ELISA. In one experiment (FIG. 3), Nunc maxisorp microplates were coated with 5 μg/ml IgG in coating buffer (sodium carbonate pH9.6) for 70 minutes at ambient temperature. Non-specific binding sites were blocked with BBT for a minimum of 2 hours then the plates washed and 10 nM biotinylated peptide in BBT added. After 1.5 hours bound peptide was detected by a 65 minute incubation with peroxidase-conjugated Streptavidin and detection with TMB as described above. […] The peptides synthesized and used in this experiment (which correspond to amino acids 401-418 of full-length Tau) have the following amino acid sequences (Table B): […]

Non-phospho. [3] = target: T2, Non-phospho.; test: as above
T2 sequence (peptide, N-terminal Biotin - linker): GDTSPRHLSNVSSTGSID

Non-phospho. [4] = target: T2, Non-phospho.; test: ELISA: 20 nM biotinylated peptide captured on Neutravidin-coated plate, IgG at 0.01, 0.1, 1, 10 and 100 nM, anti-human-peroxidase/TMB, absorbance 450 nm [D00008 Fig. 4C – 4D; D00009 Fig. 4E]

B1: 5202.4 (hIgG1 antibody) (antibody, V domains shown)
VH: EVQLVQSGAEVKKPGSSVKVSCKASGYTFTDYYMNWVRQAPGQGLEWIGDINPNRGGTTYNQKFKGRVTITVDKSTSTAYMELSSLRSEDTAVYYCASYYAVGYWGQGTTVTVSS
VL: DIVMTQTPLSLPVTPGEPASISCRSSQSLVHSHGKTYLHWYLQKPGQSPQLLIYKVSNRFSGVPDRFSGSGSGTDFTLKISRVEAEDVGVYFCSQTAHFPYTFGGGTKVEIKR
Question: How did the binding (Non-phospho. [1]) turn out when B1 was run?
Answer: The binding was “no binding (tested: 100 nM)”.

Question: And the binding (Non-phospho. [2])?
Answer: Its binding is “no binding (tested: 10 nM)”.

B2: TAM1 IgG1 (antibody, V domains shown)
VH: EVQLVQSGAEVKKPGSSVKVSCKASGYTFTDYYMNWVRQAPGQGLEWIGDINPNRGGTTYNQKFKGRVTITVDKSTSTAYMELSSLRSEDTAVYYCASYYAVGYWGQGTTVTVSS
VL: DIVMTQTPLSLPVTPGEPASISCRSSQSLVHRNGKTYLHWYLQKPGQSPQLLIYKVSNRFSGVPDRFSGSGSGTDFTLKISRVEAEDVGVYFCSQTARFPYTFGGGTKVEIKR
Question: How did the binding (Non-phospho. [3]) turn out when B2 was run?
Answer: The binding was “no binding (tested: 10 nM)”.

Question: And the binding (Non-phospho. [4])?
Answer: The binding was “no binding (tested: 100 nM)”.

B3: TAM2 IgG1 (antibody, V domains shown)
VH: EVQLVQSGAEVKKPGSSVKVSCKASGYTFTDYYMNWVRQAPGQGLEWIGDINPNRGGTTYNQKFKGRVTITVDKSTSTAYMELSSLRSEDTAVYYCASYYAVGYWGQGTTVTVSS
VL: DIVMTQTPLSLPVTPGEPASISCRSSQSLVHSRGKTYLHWYLQKPGQSPQLLIYKVSNRFFGVPDRFSGSGSGTDFTLKISRVEAEDVGVYFCSQTARFPYTFGGGTKVEIKR
Question: B3 was tested. Which binding (Non-phospho. [3]) did it give?
Answer: The binding was “no binding (tested: 10 nM)”.

Question: What about the binding (Non-phospho. [4]) of the same binder?
Answer: The binding was “no binding (tested: 100 nM)”.

B4: TAM9 IgG1 (antibody, V domains shown)
VH: EVQLVQSGAEVKKPGSSVKVSCKASGYTFTDYYMNWVRQAPGQGLEWIGDINPNRGGTTYNQKFKGRVTITVDKSTSTAYMELSSLRSEDTAVYYCASYYAVGYWGQGTTVTVSS
VL: DIVMTQTPLSLPVTPGEPASISCRSSQSLVRSHGKTYLHWYLQKPGQSPQLLIYKVSNRFKGVPDRFSGSGSGTDFTLKISRVEAEDVGVYFCSQTAQFPYTFGGGTKVEIKR
Question: Which results are given for B4?
Answer: binding (Non-phospho. [3]): no binding (tested: 10 nM); binding (Non-phospho. [4]): no binding (tested: 100 nM)

B5: TAM19 IgG1 (antibody, V domains shown)
VH: EVQLVQSGAEVKKPGSSVKVSCKASGYTFTDYYMNWVRQAPGQGLEWIGDINPNRGGTTYNQKFKGRVTITVDKSTSTAYMELSSLRSEDTAVYYCASYYAVGYWGQGTTVTVSS
VL: DIVMTQTPLSLPVTPGEPASISCRSSQSLRHSHGKTYLHWYLQKPGQSPQLLIYKVSHRFSGVPDRFSGSGSGTDFTLKISRVEAEDVGVYFCSQTRHFPYTFGGGTKVEIKR
Question: With B5 as the binder, how does the binding (Non-phospho. [3]) read?
Answer: The binding was “no binding (tested: 10 nM)”.

Question: And the binding (Non-phospho. [4])?
Answer: Its binding is “no binding (tested: 100 nM)”.

— patent publication US20160024193A1 (AC IMMUNE S A, published 2016)
